In US10159663B2, “Substituted macrocycles useful as kinases inhibitors and methods of use thereof” (TELIGENE LTD., priority 2014, dated 2018):
Some results were stated once for a whole list of compounds, not compound by compound.

Chains of the proteins cited; added tags and fusions are not shown.
UniProt P08684, whole entry: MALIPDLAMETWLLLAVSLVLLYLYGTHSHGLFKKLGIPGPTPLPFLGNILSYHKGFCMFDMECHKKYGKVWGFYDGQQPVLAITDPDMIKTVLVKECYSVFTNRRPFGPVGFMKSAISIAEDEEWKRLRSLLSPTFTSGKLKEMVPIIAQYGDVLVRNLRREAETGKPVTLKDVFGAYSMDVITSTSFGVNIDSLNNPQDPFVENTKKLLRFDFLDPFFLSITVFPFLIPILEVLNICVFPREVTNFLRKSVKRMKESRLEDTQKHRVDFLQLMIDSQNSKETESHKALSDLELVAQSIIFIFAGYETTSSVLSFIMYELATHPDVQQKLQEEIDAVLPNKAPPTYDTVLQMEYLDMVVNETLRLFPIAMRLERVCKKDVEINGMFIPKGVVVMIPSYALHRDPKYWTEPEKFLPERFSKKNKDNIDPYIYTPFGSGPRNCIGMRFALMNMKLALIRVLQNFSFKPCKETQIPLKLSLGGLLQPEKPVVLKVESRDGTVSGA

Molecular target: T1, CYP 3A4 (Homo sapiens, UniProt P08684)
T1 construct: Incubation mixtures in duplicate contain pooled human liver microsome (0.1 mg/mL); from tissue; host or cells: pooled human liver microsomes
Test: P450 3A4 assay in human liver microsomes
Assay type: in vitro ADME
Procedure: The final concentrations of DMSO and acetonitrile were equal or less than 0.1%.
The column temperature was maintained at ambient temperature (25° C.). […] The flow rate was maintained at 0.6 mL/min.

C[C@H]1Oc2cc(cnc2NC(=O)CN)-c2c(nn(C)c2C#N)CN(C)C(=O)c2ccc(F)cc21 [Compound 6, (10R)-7-(2-aminoacetyl)amino-12-fluoro-2,10,16-trimethyl-15-oxo-10,15,16,17-tetrahydro-2H-8,4-(metheno)pyrazolo[4,3-h][2,5,11]-benzoxadiazacyclotetradecine-3-carbonitrile]
Cytochrome P450 3A4 inhibition (DDI risk class): low (IC50>10 μM CYP inhibition low)
